{
  "source": "patent US9499511B2",
  "about": "“N-substituted hydroxylamine derivatives with carbon-based leaving groups” (The Johns Hopkins University, priority 2011, dated 2016)",
  "note": "Structures can show the parent of a compound that is named as a salt. Marks after values point to notes of the source that are not given here.",
  "data": [
    {"assay": "Decomposition monitored by 1H NMR spectroscopy (carbanion yield, kinetics, half-life)", "type": "physicochemical", "settings": "yields of carbanions 1b-4b, 6b by 1H NMR spectroscopy", "description": "[…] In each case, the bottom spectrum was collected at the start of the experiment, and the top spectrum after complete decomposition.\nNMR spectra were obtained on a Bruker Avance 400 MHz FT-NMR spectrometer. […] High-resolution mass spectra were obtained on a VG Analytical VG70SE magnetic sector mass spectrometer operating in fast atom bombardment (FAB) mode. […]", "values": [
      {"smiles": "CC1(C)OC(=O)C(C)(NO)C(=O)O1", "note": "[Compound 1a, 5-(N-hydroxylamine)-5-methyl-Meldrum's acid hydrochloride monohydrate]", "% Carbanion": "4^d %"},
      {"smiles": "CO/N=C(\\C)C1(NO)C(=O)OC(C)(C)OC1=O", "note": "[Compound 2a, 5-(N-hydroxylamine)-5-(acetyl-O-methoxyoxime)-Meldrum's acid]", "% Carbanion": "34^d %"},
      {"smiles": "CCC1(NO)C(=O)N(C)C(=O)N(C)C1=O", "note": "[Compound 3a, 5-(N-hydroxylamine)-5-ethyl-N,N-dimethylbarbituric acid hydrochloride]", "% Carbanion": "6^e %"},
      {"smiles": "CO/N=C(\\C)C1(NO)C(=O)N(C)C(=O)N(C)C1=O", "note": "[Compound 4a, 5-(N-hydroxylamine)-5-(acetyl-O-methoxyoxime)-N,N-dimethylbarbituric acid]", "% Carbanion": ">95%"},
      {"smiles": "CO/N=C(\\C)C1(NO)C(=O)N(c2ccccc2)N=C1C", "note": "(centres unmarked) [Compound 6a, 4-(N-hydroxylamine)-4-(acetyl-O-methoxyoxime)-N-phenyl-5-methyl-pyrazolone]", "% Carbanion": ">95%"}
    ]}
  ]
}
